Experimental findings from patent US12036271B2, “Peptides and combination of peptides as targets or active ingredients for use in immunotherapy against AML and other cancers” (Immatics Biotechnologies GmbH, priority 2016, dated 2024) are described below.

The series deals with other tumor types (measured tumor samples). Description: Presentation of the peptides on additional tumor types (LC-MS of HLA ligands). Set-up: species or system human. As to conditions: for Other relevant organs/diseases: additional tumor types on which the peptide was over-presented on more than 5% of measured tumor samples, or presented on more than 5% with ratio of geometric means tumor vs normal tissues larger than 3.

For the substance “118 (TLLTVLTQA; listed as Homo sapiens) [compound 118]”, the Other relevant organs/diseases result is on record as “CLL, NHL”. Still for that read-out and setting: in the case of “20 (GLDAFLLEL; listed as Homo sapiens) [compound 20]” it was “NHL, Gallbladder Cancer, Bile Duct Cancer”; in that of “186 (IILDEAHNV; listed as Homo sapiens) [compound 186]”, “CLL, NHL, Melanoma, Uterine Cancer”; in that of “36 (VLGPSPSSV; listed as Homo sapiens) [compound 36]”, “BRCA, Melanoma”. As for “SEQ ID NO.: 1: peptide found in GNA15 (gene looked up) (LLDSAVYYL; listed as Homo sapiens)”, the “peptide additionally detected on tumor samples (positive/measured)” value by setting is: (esophageal cancers) 2/17; (gallbladder and bile duct cancers) 1/17; (melanomas) 2/18; (non-small cell lung cancers) 4/85; (ovarian cancers) 1/20; (urinary bladder cancers) 1/15. Besides, where the note is “uterine cancers”, the “peptide additionally detected on tumor samples (positive/measured)” value is 1/16.

Take “170 (IVTEVAVGV; listed as Homo sapiens) [compound 170]”: the Other relevant organs/diseases result is reported as “RCC, CLL, NHL, Melanoma, Uterine Cancer”. The same measure, in the same setting: in the case of “144 (GLFMGLVLV; listed as Homo sapiens) [compound 144]” it was “NHL, BRCA, Melanoma”; in that of “148 (FLYFEDHGL; listed as Homo sapiens) [compound 148]”, “SCLC, CLL, NHL, Melanoma, Uterine Cancer”. The same measure, in the same setting: in the case of “49 (IIDDNHAIV; listed as Homo sapiens) [compound 49]” it was “Melanoma”; in that of “113 (NLQSEVEGV; listed as Homo sapiens) [compound 113]”, “PC, CLL”. The same measure, in the same setting: in the case of “28 (LLDQMETPL; listed as Homo sapiens) [compound 28]” it was “Melanoma”; in that of “123 (YTVKINPTL; listed as Homo sapiens) [compound 123]”, “Gallbladder Cancer, Bile Duct Cancer”; in that of “124 (GLPELVIQL; listed as Homo sapiens) [compound 124]”, “HCC, CLL, NHL, BRCA, Melanoma, Urinary bladder cancer, Uterine Cancer, Gallbladder Cancer, Bile Duct Cancer”. Take “78 (VLSEVECHL; listed as Homo sapiens) [compound 78]”: the Other relevant organs/diseases entry is recorded as “Melanoma”. The same measure, in the same setting: for “31 (SLFVFIPMV; listed as Homo sapiens) [compound 31]” the value was “Urinary bladder cancer”; for “140 (YIPDFLTLL; listed as Homo sapiens) [compound 140]”, “CLL, Melanoma”. On the same count and under the same terms, for “79 (YLMDPDTFTF; listed as Homo sapiens) [compound 79]” the value was “SCLC”; for “105 (GVFALVTAV; listed as Homo sapiens) [compound 105]”, “NHL, BRCA, Melanoma, Uterine Cancer”; for “112 (ILRDALNQA; listed as Homo sapiens) [compound 112]”, “RCC, CLL, NHL, Melanoma”.

Take “174 (NLTENLQYV; listed as Homo sapiens) [compound 174]”: the Other relevant organs/diseases result is on record as “NHL”. With “188 (RLLDFPTLL; listed as Homo sapiens) [compound 188]”, the Other relevant organs/diseases result is on record as “SCLC, RCC, CRC, HCC, CLL, NHL, BRCA, OC”. Consider “45 (FLFTDVLLM; listed as Homo sapiens) [compound 45]”, for which the Other relevant organs/diseases result is reported as “NHL”. Still for that read-out and setting: for “84 (GLLGSVLTI; listed as Homo sapiens) [compound 84]” the value was “HCC, NHL, BRCA, Urinary bladder cancer, Uterine Cancer”. On the same count and under the same terms, for “90 (LLLDTVTSI; listed as Homo sapiens) [compound 90]” the value was “Brain Cancer, BRCA”; for “162 (SLLDFLTFA; listed as Homo sapiens) [compound 162]”, “NHL”.

On to “94 (SLLEFAQYL; listed as Homo sapiens) [compound 94]”, for which the Other relevant organs/diseases result is listed as “NHL”.

For the substance “151 (GLLPFPEVTL; listed as Homo sapiens) [compound 151]”, the Other relevant organs/diseases result was “CLL, NHL”. On the same count and under the same terms, in the case of “150 (GLFGVLNEI; listed as Homo sapiens) [compound 150]” it was “CLL, NHL, Uterine Cancer”; in that of “187 (MLPPPPLTA; listed as Homo sapiens) [compound 187]”, “SCLC, RCC, Brain Cancer, CLL, NHL, BRCA, Melanoma, Esophageal Cancer, Urinary bladder cancer, Uterine Cancer, Gallbladder Cancer, Bile Duct Cancer”.

As to “163 (SLMIDLIEV; listed as Homo sapiens) [compound 163]”, the Other relevant organs/diseases entry is “Melanoma, OC”. Consider “83 (GLGAGVAEAV; listed as Homo sapiens) [compound 83]”, for which the Other relevant organs/diseases entry is on record as “CLL”. Regarding “149 (GLAEILVLV; listed as Homo sapiens) [compound 149]”, the Other relevant organs/diseases entry is recorded as “RCC, Brain Cancer, NHL, Melanoma”.

For “75 (VLAPLGFTL; listed as Homo sapiens) [compound 75]”, the Other relevant organs/diseases entry was “BRCA”.

In the case of “133 (TVIGTLLFL; listed as Homo sapiens) [compound 133]”, the Other relevant organs/diseases entry is reported as “NHL”. “56 (LANPTTSAL; listed as Homo sapiens) [compound 56]”: the Other relevant organs/diseases entry was “CLL, Gallbladder Cancer, Bile Duct Cancer”.

Turning to “185 (RLIPIIVLL; listed as Homo sapiens) [compound 185]”, the Other relevant organs/diseases result was “SCLC, NHL, Gallbladder Cancer, Bile Duct Cancer”. Turning to “106 (ALLEELERSTL; listed as Homo sapiens) [compound 106]”, the Other relevant organs/diseases entry is “NHL”. On the same count and under the same terms, in the case of “52 (IVDPVDSTL; listed as Homo sapiens) [compound 52]” it was “Melanoma”; in that of “115 (SLPDLTTPL; listed as Homo sapiens) [compound 115]”, “CLL, NHL, BRCA, Melanoma”; in that of “27 (KANPALYVL; listed as Homo sapiens) [compound 27]”, “CLL”. Still for that read-out and setting: in the case of “120 (VIQDLVVSV; listed as Homo sapiens) [compound 120]” it was “Melanoma, Uterine Cancer”; in that of “33 (TIMNQEKLAKL; listed as Homo sapiens) [compound 33]”, “CRC, NHL, Uterine Cancer”; in that of “7 (LLWGDIMEL; listed as Homo sapiens) [compound 7]”, “NHL”.

For “107 (ALLGMLPLL; listed as Homo sapiens) [compound 107]”, the Other relevant organs/diseases entry is “CLL, NHL”. Same read-out and setting: in the case of “135 (GIIDRIFQA; listed as Homo sapiens) [compound 135]” it was “CRC, HCC, BRCA”; in that of “184 (RMTDQEAIQDL; listed as Homo sapiens) [compound 184]”, “NHL, Melanoma”; in that of “13 (ALVPGVTQV; listed as Homo sapiens) [compound 13]”, “CLL, NHL, Melanoma, Uterine Cancer”.
